The target of assay [1] is SERCA2a (sarcoplasmic reticulum Ca2+-ATPase 2a), rat, endogenous in neonatal rat cardiomyocytes (rat (endogenous in neonatal rat cardiomyocytes)) (UniProt P11507). Briefly: co-IP; neonatal rat cardiomyocytes (control, high glucose + palmitate + oleate, with or without NaHS) immunoprecipitated with anti-SERCA2a antibody on Protein G Plus agarose, 4 °C overnight; immunoblot for MuRF1. (Immunoblotting shows a protein as a band on a membrane.)

Sequences of proteins named here, by UniProt entry; tags and fusion partners are left off. A change or cut given only in a name is not applied to a line headed by its entry. A line that says so, or that is headed by a name, gives the form on record, which may keep a tag or linker.
UniProt Q38HM4: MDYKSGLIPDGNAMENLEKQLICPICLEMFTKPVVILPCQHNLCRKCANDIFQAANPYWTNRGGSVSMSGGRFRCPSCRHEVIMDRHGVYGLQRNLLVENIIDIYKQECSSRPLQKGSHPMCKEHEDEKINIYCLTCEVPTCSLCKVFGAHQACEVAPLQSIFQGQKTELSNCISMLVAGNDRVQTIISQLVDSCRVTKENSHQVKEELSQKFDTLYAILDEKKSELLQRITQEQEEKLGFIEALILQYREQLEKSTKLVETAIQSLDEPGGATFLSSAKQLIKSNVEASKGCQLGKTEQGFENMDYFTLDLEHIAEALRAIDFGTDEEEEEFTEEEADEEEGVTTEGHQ
UniProt Q91Z63: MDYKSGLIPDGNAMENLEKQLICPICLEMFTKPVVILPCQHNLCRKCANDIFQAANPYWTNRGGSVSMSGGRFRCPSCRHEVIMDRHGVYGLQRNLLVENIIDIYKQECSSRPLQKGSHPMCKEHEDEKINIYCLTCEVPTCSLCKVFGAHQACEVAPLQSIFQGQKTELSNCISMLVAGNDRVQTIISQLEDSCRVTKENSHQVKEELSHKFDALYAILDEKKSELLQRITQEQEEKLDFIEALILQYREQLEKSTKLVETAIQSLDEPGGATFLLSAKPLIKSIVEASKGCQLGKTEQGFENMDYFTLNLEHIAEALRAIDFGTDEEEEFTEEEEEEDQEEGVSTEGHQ
SERCA2a (sarcoplasmic reticulum Ca2+-ATPase 2a), mouse, endogenous in cardiac tissue (O55143-2, form named): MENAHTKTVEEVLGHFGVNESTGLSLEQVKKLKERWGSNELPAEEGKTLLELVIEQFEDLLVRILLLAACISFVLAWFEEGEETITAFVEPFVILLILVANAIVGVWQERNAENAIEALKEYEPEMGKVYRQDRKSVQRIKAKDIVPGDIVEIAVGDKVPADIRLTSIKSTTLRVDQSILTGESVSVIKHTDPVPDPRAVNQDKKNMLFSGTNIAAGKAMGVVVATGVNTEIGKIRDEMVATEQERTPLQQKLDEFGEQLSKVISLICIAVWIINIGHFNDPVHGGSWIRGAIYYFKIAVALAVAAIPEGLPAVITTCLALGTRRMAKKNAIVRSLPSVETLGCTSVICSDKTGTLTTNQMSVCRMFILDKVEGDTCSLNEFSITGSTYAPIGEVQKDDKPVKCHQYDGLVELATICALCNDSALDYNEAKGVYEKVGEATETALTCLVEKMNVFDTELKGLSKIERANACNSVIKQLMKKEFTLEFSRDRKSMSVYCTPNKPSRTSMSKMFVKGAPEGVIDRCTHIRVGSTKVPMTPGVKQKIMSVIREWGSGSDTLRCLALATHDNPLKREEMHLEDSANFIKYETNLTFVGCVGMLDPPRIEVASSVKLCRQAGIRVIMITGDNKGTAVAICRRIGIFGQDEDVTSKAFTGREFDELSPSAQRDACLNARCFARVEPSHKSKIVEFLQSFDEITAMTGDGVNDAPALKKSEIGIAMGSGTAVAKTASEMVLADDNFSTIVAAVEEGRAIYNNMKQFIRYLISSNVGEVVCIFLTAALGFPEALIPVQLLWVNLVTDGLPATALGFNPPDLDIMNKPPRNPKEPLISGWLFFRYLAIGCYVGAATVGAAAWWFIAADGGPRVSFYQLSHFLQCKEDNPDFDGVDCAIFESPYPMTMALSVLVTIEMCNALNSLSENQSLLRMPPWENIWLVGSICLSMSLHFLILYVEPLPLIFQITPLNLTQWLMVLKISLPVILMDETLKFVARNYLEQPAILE

The target of assay [2] is Muscle RING Finger-1 (MuRF1), mouse, endogenous in cardiac tissue (mouse (endogenous in cardiac tissue)) (UniProt Q38HM4). Briefly: co-IP; cardiac tissue lysate of mice (control, db/db, with or without NaHS) immunoprecipitated with anti-MuRF1 antibody on Protein G Plus agarose, 4 °C overnight; immunoblot for SERCA2a.

These are yes or no findings as the source states them, for the method shown. Binding seen in cells or lysates may run through a third protein. Some results given as binding are weak or reduced against the parent protein; the word gives no strength.

On to “Muscle RING Finger-1 (MuRF1), rat, endogenous in neonatal rat cardiomyocytes (from UniProt Q91Z63 1-351)”, for which, in assay [1], the binding entry is “binds”.

Turning to “SERCA2a (sarcoplasmic reticulum Ca2+-ATPase 2a), mouse, endogenous in cardiac tissue (from UniProt O55143-2 1-998)”, the binding result in assay [2] is “binds”.

Source of the values: article PMC9658184.
